# Assay results published in paper PMC11217295, “The immune response to RNA suppresses nucleic acid synthesis by limiting ribose 5-phosphate” (The EMBO Journal, 2024).
# By UniProt entry, the sequences of proteins in these tests, tags left out. Where a name states a change or a piece, a line headed by the entry shows the natural chain unless it says otherwise.
# UniProt P19525: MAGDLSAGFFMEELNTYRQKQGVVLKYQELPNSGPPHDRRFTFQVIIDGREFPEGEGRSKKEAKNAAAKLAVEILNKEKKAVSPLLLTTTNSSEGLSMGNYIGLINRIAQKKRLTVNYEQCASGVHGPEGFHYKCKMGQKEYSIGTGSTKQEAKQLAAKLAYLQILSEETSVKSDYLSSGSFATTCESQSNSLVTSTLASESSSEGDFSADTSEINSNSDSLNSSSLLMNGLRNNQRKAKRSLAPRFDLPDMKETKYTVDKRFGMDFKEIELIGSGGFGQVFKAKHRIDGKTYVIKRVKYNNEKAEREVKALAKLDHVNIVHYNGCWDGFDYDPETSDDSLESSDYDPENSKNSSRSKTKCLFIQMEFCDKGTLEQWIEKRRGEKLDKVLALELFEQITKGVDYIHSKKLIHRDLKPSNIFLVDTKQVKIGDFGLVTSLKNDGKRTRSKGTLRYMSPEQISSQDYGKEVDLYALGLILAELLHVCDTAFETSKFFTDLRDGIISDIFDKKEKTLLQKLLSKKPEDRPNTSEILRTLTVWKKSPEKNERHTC
# UniProt P49247: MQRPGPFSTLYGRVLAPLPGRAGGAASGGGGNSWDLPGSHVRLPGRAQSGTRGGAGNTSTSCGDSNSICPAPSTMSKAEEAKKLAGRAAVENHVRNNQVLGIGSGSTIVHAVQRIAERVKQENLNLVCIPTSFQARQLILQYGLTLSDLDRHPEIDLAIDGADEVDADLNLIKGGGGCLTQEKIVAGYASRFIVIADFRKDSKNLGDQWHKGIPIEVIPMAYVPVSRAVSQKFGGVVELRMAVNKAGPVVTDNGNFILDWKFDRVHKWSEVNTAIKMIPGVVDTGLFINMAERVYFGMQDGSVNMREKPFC
# No constants are given. Whether binding was seen depends on the method and setting. Binding seen in cells or lysates may run through a third protein. These calls come from enrichment with a bait or labelling near it, and not all partners need be listed.
# Experiments:
# [1] = target: split Venus-tagged human Protein Kinase RNA-activated (PKR), wild type (human) (UniProt P19525); test: affinity purification with mass spectrometry; HEK293 with suppressed PKR expression co-transfected with complementary split Venus-tagged PKR (100 ng) and RPIA (500 ng); RIPA lysate with phosphatase inhibitors after 48 h; reconstituted Venus complexes captured by GFP-Trap, trypsin digest, LC-MS/MS
# [2] = target: split Venus-tagged human Protein Kinase RNA-activated (PKR), kinase-dead point mutant K296R (human) (UniProt P19525); test: as above
substance,measurement,setting,value
split Venus-tagged human Ribose 5-Phosphate Isomerase A (RPIA) (from UniProt P49247 1-311) (enzyme),binding,[1],binds
same,binding,[2],binds
